According to PubChem BioAssay AID588590 (National Center for Advancing Translational Sciences (NCATS), 2011):
Screen size: about 390,000 compounds; about 4,000 (1%) were called active. The inconclusive results got no clear call from the source; some entries with a clear call stand among them for comparison. Calls come from the whole dose curve; as a rule, active = well fitted inhibition curve with a large enough effect; inconclusive = small, poorly fitted or top-dose-only effect, or another doubt; inactive = no such curve, though single readings can be large or run the other way. A potency beside an inconclusive call is a rough fit, not a confirmed value.

By UniProt entry, the sequences of proteins in these tests, tags left out. Where a name states a change or a piece, a line headed by the entry shows the natural chain unless it says otherwise.
UniProt Q9UNA4: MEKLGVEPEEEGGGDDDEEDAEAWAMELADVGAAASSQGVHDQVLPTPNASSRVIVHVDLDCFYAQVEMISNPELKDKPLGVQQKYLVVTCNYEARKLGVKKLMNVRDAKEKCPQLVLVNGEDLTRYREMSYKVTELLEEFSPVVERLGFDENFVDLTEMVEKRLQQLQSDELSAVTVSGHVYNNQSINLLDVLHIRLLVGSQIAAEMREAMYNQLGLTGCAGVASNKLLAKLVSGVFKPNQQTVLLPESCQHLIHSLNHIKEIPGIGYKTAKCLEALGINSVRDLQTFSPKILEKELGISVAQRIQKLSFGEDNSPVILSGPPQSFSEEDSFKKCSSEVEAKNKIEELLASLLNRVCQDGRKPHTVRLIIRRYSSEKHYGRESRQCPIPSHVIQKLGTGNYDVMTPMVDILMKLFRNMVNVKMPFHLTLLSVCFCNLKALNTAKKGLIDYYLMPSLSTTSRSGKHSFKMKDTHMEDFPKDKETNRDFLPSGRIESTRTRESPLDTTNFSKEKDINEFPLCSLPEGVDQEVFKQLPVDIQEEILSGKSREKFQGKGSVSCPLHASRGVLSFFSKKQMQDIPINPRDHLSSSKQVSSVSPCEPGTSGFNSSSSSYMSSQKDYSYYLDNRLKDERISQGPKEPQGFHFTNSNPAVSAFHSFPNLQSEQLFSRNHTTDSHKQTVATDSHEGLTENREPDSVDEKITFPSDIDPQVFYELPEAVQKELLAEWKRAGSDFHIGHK

Each compound was assayed against DNA polymerase iota (Homo sapiens) (UniProt Q9UNA4) (assay: qHTS for Inhibitors of Polymerase Iota). Settings: Pol iota fluorescent replication assay, 10 min; series mostly up to 115 µM; activity, negative = inhibition: at the top concentration.
How it was run: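 Fluorescent replication assay read twice, at 0 min and 10 min after adding 50 nM (final) substrate. Enzyme (10 nM) and compounds were first incubated 15 min at room temperature; enzyme-free buffer wells were negative controls.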
Potency is the fitted concentration of half-maximal effect.

Compound | activity, negative = inhibition | Potency
COc1ccc(-c2cc(C)nc3c(-c4ccc(OC)c(OC)c4)c(C)nn23)cc1 | inactive: -4.54% | –
O=C(COc1ccccc1[N+](=O)[O-])OCC(=O)c1ccc(Br)s1 | inactive: -19.3% | –
O=C(NCC12CC3CC(CC(C3)C1)C2)c1cc2nc(-c3ccccc3)cc(C(F)(F)F)n2n1 | – | inconclusive: 3.16 µM [inhibitor, partial curve, poor fit]
CC(=O)c1ccc(OCC(=O)c2ccc(-c3ccccc3)cc2)cc1 | – | inconclusive: 3.55 µM [inhibitor, full curve, poor fit]
COc1ccc(S(=O)(=O)N(C)C[C@H]2Oc3c(NC(=O)C4CC4)cccc3C(=O)N([C@H](C)CO)C[C@@H]2C)cc1 | – | inconclusive: 56.2 µM [inhibitor, partial curve, poor fit]
Cc1sc2nc3ccc(N4CCCC4)nn3c(=O)c2c1C | – | inconclusive: 39.8 µM [inhibitor, single point]
Cc1ccc2nc(-c3ccc(NC(=O)CSc4nc(N)cc(=O)[nH]4)cc3)sc2c1 | inactive: -20% | –
CCCCCn1c(=O)[nH]c2cc(C(=O)N3CCN(c4cccc(C)c4)C(C)C3)ccc2c1=O (stereo not drawn) | inactive: 6.73% | –
Cc1ccc(S(=O)(=O)N2CCN(c3nc(-c4ccncc4)nc4ccccc34)CC2)cc1 | – | inconclusive: 100 µM [inhibitor, single point]
COC(=O)c1ccccc1NC(=O)C1CCCO1 (stereo not drawn) | – | inconclusive: 89.1 µM [inhibitor, single point]
Cc1ccc(N2C(=O)C(c3c(C)[nH]n(-c4ccccc4)c3=O)(C(F)(F)F)C3=C2CC(C)(C)CC3=O)cc1 (stereo not drawn) | – | inconclusive: 12.6 µM [inhibitor, partial curve, poor fit]
CC1CC=CC2C1C(=O)N(Cc1ccccc1)C2c1ccc2ccccc2c1Br (stereo not drawn) | – | inconclusive: 17.8 µM [inhibitor, single point]
C=CCn1c(SC(F)F)nc2scc(-c3ccco3)c2c1=O | inactive: 8.69% | –
Cc1ccc(N/N=C(\C#N)C(N)=S)cc1C | inactive: 86.9% | –
Fc1cccc(CNc2ncnc3cc(Cl)ccc23)c1F | – | inconclusive: 39.8 µM [inhibitor, partial curve, poor fit]
COc1ccc(N2CC(NC(=O)c3cc4ccccc4o3)CC2=O)cc1OC (stereo not drawn) | inactive: 27% | –
CC[C@]1(C(=O)OC)[C@H]2C(=O)N(C)C(=O)[C@H]2[C@H]2CN=C(SCc3ccc(OC)cc3)N21 | – | inconclusive: 35.5 µM [inhibitor, full curve, poor fit]
Cc1ccc2nc(N3C(=O)C(O)=C(C(=O)c4ccco4)C3c3cccc(O)c3)sc2c1 (stereo not drawn) | – | inconclusive: 14.1 µM [inhibitor, full curve, poor fit]

2 consecutive entries from above, for reference:
Compound | activity, negative = inhibition | Potency
COc1ccc(N2CC(NC(=O)c3cc4ccccc4o3)CC2=O)cc1OC (stereo not drawn) | inactive: 27% | –
CC[C@]1(C(=O)OC)[C@H]2C(=O)N(C)C(=O)[C@H]2[C@H]2CN=C(SCc3ccc(OC)cc3)N21 | – | inconclusive: 35.5 µM [inhibitor, full curve, poor fit]
